# In US20110311508A1 (NORTHWESTERN UNIVERSITY, published 2011):
# Results are given in words; binding and its absence hold for the method and conditions named. Some results given as binding are weak or reduced against the parent protein; the word gives no strength. Sequences can lack the tags named with a protein.
# T1: Myc-HSF1 (hHSF1-Myc, wild-type human HSF1 with a Myc tag) (human), Q00613
# T1 chain: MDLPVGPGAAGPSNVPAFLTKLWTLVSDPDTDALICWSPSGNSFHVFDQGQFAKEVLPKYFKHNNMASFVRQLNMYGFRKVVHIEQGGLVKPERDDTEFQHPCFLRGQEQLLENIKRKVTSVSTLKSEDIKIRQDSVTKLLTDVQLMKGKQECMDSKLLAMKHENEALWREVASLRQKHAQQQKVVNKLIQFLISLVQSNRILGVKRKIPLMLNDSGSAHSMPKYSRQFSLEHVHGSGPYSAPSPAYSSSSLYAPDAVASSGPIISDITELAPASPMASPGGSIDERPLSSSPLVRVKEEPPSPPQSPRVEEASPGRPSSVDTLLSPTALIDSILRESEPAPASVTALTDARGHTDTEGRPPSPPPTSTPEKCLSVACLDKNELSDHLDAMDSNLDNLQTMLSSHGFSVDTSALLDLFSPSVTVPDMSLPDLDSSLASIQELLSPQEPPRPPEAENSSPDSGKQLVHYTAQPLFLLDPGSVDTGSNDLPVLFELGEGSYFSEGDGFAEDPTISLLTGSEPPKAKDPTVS
# B1: Myc-HSF1 (hHSF1-Myc, wild-type human HSF1 with a Myc tag), Q00613 1-529 (protein, not shown: small tags and cut ends)
# chain: T1 chain
# Target: T1, Myc-HSF1 (hHSF1-Myc, wild-type human …)
# Assay: self-association (trimerization); EGS crosslinking of K562 cell extracts, SDS-PAGE, western blot
# Settings: remark: other sources report otherwise
binder,measurement,value
B1,binding,binds
